Data taken from US7838556B2 (priority 2006, dated 2010).

Molecular target: GABA, Non-Selective
Assay type: binding
Settings: read-out: Ki (M) Ref. Cpd.

`NCCCC(=O)O` [Compound 2, gamma-aminobutyric acid, reference compound] gave a Ki of 1.1e-08 M.
